According to article PMC9102673:

T1: DDIT4–APEX2 fusion protein (rigid linker) (human) (UniProt Q9NX09)
T1 sequence: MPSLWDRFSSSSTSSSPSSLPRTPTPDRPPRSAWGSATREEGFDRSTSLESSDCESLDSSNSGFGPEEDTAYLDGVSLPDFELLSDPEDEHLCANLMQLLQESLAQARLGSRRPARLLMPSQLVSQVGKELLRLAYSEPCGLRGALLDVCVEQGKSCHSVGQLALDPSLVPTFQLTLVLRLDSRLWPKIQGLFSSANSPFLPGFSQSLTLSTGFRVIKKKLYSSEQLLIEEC

B1: MCCC1 (protein, UniProt Q96RQ3 42-725)
chain: TTATGRNITKVLIANRGEIACRVMRTAKKLGVQTVAVYSEADRNSMHVDMADEAYSIGPAPSQQSYLSMEKIIQVAKTSAAQAIHPGCGFLSENMEFAELCKQEGIIFIGPPPSAIRDMGIKSTSKSIMAAAGVPVVEGYHGEDQSDQCLKEHARRIGYPVMIKAVRGGGGKGMRIVRSEQEFQEQLESARREAKKSFNDDAMLIEKFVDTPRHVEVQVFGDHHGNAVYLFERDCSVQRRHQKIIEEAPAPGIKSEVRKKLGEAAVRAAKAVNYVGAGTVEFIMDSKHNFCFMEMNTRLQVEHPVTEMITGTDLVEWQLRIAAGEKIPLSQEEITLQGHAFEARIYAEDPSNNFMPVAGPLVHLSTPRADPSTRIETGVRQGDEVSVHYDPMIAKLVVWAADRQAALTKLRYSLRQYNIVGLHTNIDFLLNLSGHPEFEAGNVHTDFIPQHHKQLLLSRKAAAKESLCQAALGLILKEKAMTDTFTLQAHDQFSPFSSSSGRRLNISYTRNMTLKDGKNNVAIAVTYNHDGSYSMQIEDKTFQVLGNLYSEGDCTYLKCSVNGVASKAKLIILENTIYLFSKEGSIEIDIPVPKYLSSVSSQETQGGPLAPMTGTIEKVFVKAGDKVKAGDSLMVMIAMKMEHTIKSPKDGTVKKVFYREGAQANRHTPLVEFEEEESDKRESE
B2: S100A8 (protein, UniProt P05109 1-93)
chain: MLTELEKALNSIIDVYHKYSLIKGNFHAVYRDDLKKLLETECPQYIRKKGADVWFKELDINTDGAVNFQEFLILVIKMGVAAHKKSHEESHKE
B3: HSD17B4 (protein, UniProt P51659 1-736)
chain: MGSPLRFDGRVVLVTGAGAGLGRAYALAFAERGALVVVNDLGGDFKGVGKGSLAADKVVEEIRRRGGKAVANYDSVEEGEKVVKTALDAFGRIDVVVNNAGILRDRSFARISDEDWDIIHRVHLRGSFQVTRAAWEHMKKQKYGRIIMTSSASGIYGNFGQANYSAAKLGLLGLANSLAIEGRKSNIHCNTIAPNAGSRMTQTVMPEDLVEALKPEYVAPLVLWLCHESCEENGGLFEVGAGWIGKLRWERTLGAIVRQKNHPMTPEAVKANWKKICDFENASKPQSIQESTGSIIEVLSKIDSEGGVSANHTSRATSTATSGFAGAIGQKLPPFSYAYTELEAIMYALGVGASIKDPKDLKFIYEGSSDFSCLPTFGVIIGQKSMMGGGLAEIPGLSINFAKVLHGEQYLELYKPLPRAGKLKCEAVVADVLDKGSGVVIIMDVYSYSEKELICHNQFSLFLVGSGGFGGKRTSDKVKVAVAIPNRPPDAVLTDTTSLNQAALYRLSGDWNPLHIDPNFASLAGFDKPILHGLCTFGFSARRVLQQFADNDVSRFKAIKARFAKPVYPGQTLQTEMWKEGNRIHFQTKVQETGDIVISNAYVDLAPTSGTSAKTPSEGGKLQSTFVFEEIGRRLKDIGPEVVKKVNAVFEWHITKGGNIGAKWTIDLKSGSGKVYQGPAKGAADTTIILSDEDFMEVVLGKLDPQKAFFSGRLKARGNIMLSQKLQMILKDYAKL
B4: SPRR1B (protein, UniProt P22528 1-89)
chain: MSSQQQKQPCTPPPQLQQQQVKQPCQPPPQEPCIPKTKEPCHPKVPEPCHPKVPEPCQPKVPEPCHPKVPEPCPSIVTPAPAQQKTKQK
B5: TGM3 (protein, UniProt Q08188 1-693)
chain: MAALGVQSINWQTAFNRQAHHTDKFSSQELILRRGQNFQVLMIMNKGLGSNERLEFIVSTGPYPSESAMTKAVFPLSNGSSGGWSAVLQASNGNTLTISISSPASAPIGRYTMALQIFSQGGISSVKLGTFILLFNPWLNVDSVFMGNHAEREEYVQEDAGIIFVGSTNRIGMIGWNFGQFEEDILSICLSILDRSLNFRRDAATDVASRNDPKYVGRVLSAMINSNDDNGVLAGNWSGTYTGGRDPRSWNGSVEILKNWKKSGFSPVRYGQCWVFAGTLNTALRSLGIPSRVITNFNSAHDTDRNLSVDVYYDPMGNPLDKGSDSVWNFHVWNEGWFVRSDLGPSYGGWQVLDATPQERSQGVFQCGPASVIGVREGDVQLNFDMPFIFAEVNADRITWLYDNTTGKQWKNSVNSHTIGRYISTKAVGSNARMDVTDKYKYPEGSDQERQVFQKALGKLKPNTPFAATSSMGLETEEQEPSIIGKLKVAGMLAVGKEVNLVLLLKNLSRDTKTVTVNMTAWTIIYNGTLVHEVWKDSATMSLDPEEEAEHPIKISYAQYEKYLKSDNMIRITAVCKVPDESEVVVERDIILDNPTLTLEVLNEARVRKPVNVQMLFSNPLDEPVRDCVLMVEGSGLLLGNLKIDVPTLGPKEGSRVRFDILPSRSGTKQLLADFSCNKFPAIKAMLSIDVAE
B6: ectodermal-neural cortex 1 (ENC1) (protein, UniProt O14682 1-589)
chain: MSVSVHENRKSRASSGSINIYLFHKSSYADSVLTHLNLLRQQRLFTDVLLHAGNRTFPCHRAVLAACSRYFEAMFSGGLKESQDSEVNFDNSIHPEVLELLLDYAYSSRVIINEENAESLLEAGDMLEFQDIRDACAEFLEKNLHPTNCLGMLLLSDAHQCTKLYELSWRMCLSNFQTIRKNEDFLQLPQDMVVQLLSSEELETEDERLVYESAINWISYDLKKRYCYLPELLQTVRLALLPAIYLMENVAMEELITKQRKSKEIVEEAIRCKLKILQNDGVVTSLCARPRKTGHALFLLGGQTFMCDKLYLVDQKAKEIIPKADIPSPRKEFSACAIGCKVYITGGRGSENGVSKDVWVYDTLHEEWSKAAPMLVARFGHGSAELKHCLYVVGGHTAATGCLPASPSVSLKQVEHYDPTINKWTMVAPLREGVSNAAVVSAKLKLFAFGGTSVSHDKLPKVQCYDQCENRWTVPATCPQPWRYTAAAVLGNQIFIMGGDTEFSACSAYKFNSETYQWTKVGDVTAKRMSCHAVASGNKLYVVGGYFGIQRCKTLDCYDPTLDVWNSITTVPYSLIPTAFVSTWKHLPS
B7: KRT18 (protein, UniProt P05783 1-430)
chain: MSFTTRSTFSTNYRSLGSVQAPSYGARPVSSAASVYAGAGGSGSRISVSRSTSFRGGMGSGGLATGIAGGLAGMGGIQNEKETMQSLNDRLASYLDRVRSLETENRRLESKIREHLEKKGPQVRDWSHYFKIIEDLRAQIFANTVDNARIVLQIDNARLAADDFRVKYETELAMRQSVENDIHGLRKVIDDTNITRLQLETEIEALKEELLFMKKNHEEEVKGLQAQIASSGLTVEVDAPKSQDLAKIMADIRAQYDELARKNREELDKYWSQQIEESTTVVTTQSAEVGAAETTLTELRRTVQSLEIDLDSMRNLKASLENSLREVEARYALQMEQLNGILLHLESELAQTRAEGQRQAQEYEALLNIKVKLEAEIATYRRLLEDGEDFNLGDALDSSNSMQTIQKTTTRRIVDGKVVSETNDTKVLRH

Target: T1, DDIT4–APEX2 fusion protein (rigid linker) (human)
Assay: proximity labelling; DDIT4–APEX2 (rigid linker) expressed in SK-N-SH cells; 1 mM biotin tyramide 45 min at 37 °C with or without 330 μM NaAsO2, 1 mM H2O2 for 1.5 min; biotinylated proteins captured on streptavidin magnetic particles and identified by LC-MS/MS; proteins labelled by APEX2 alone filtered out

Binder | binding
B1 | binds
B2 | binds
B3 | binds
B4 | binds
B5 | binds
B6 | binds
B7 | binds

Results are given in words; binding and its absence hold for the method and conditions named. Binding seen in cells or lysates may run through a third protein. A yes stands for co-enrichment or nearness to the bait. Other partners may have been found. Where a sequence is shown, tags or fusion partners need not be part of it.
